The list shows a part of the results.

The target in this assay is T1, OsSMF1 (Oryza sativa, UniProt Q6ZLB0 1-436).
T1 sequence: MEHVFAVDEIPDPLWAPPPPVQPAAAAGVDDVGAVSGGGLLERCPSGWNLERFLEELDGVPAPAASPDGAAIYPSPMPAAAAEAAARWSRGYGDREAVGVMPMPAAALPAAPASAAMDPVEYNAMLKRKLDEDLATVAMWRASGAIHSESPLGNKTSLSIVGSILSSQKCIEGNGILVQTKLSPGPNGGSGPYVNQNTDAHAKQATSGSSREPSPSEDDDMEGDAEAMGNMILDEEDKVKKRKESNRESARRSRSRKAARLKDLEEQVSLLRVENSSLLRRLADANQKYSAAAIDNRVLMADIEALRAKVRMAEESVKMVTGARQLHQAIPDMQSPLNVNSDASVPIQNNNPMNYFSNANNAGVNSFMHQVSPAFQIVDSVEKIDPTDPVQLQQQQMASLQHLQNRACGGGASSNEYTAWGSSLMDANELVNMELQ
The assay is described as follows: protein-binding microarray (RPBM); PBS, 2% BSA, 51.3 ng/ul salmon testes DNA, 50 uM zinc acetate, 200 nM TF, 25 C, 1 h; high values mean tight binding. Particulars: protein: recombinant; tags: N-terminal polyhistidine and DsRed monomer fusion (pET32a); chain copies: 2; label: CyDye5-dUTP incorporated in the synthesized complementary strand; 3' TTTTT single-stranded linker to array surface; dsDNA, one strand shown. A digest of the protocol: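 In PBS with 2% BSA, salmon testes DNA and 50 µM zinc acetate, 200 nM protein was incubated on a custom Agilent array at 25 °C for 1 h and then washed off. The array had been made double-stranded by primer extension with Cy5-dUTP and blocked with 2% BSA. The proteins were transcription factors fused N-terminally to polyhistidine and DsRed, expressed in E. coli BL21-CodonPlus and purified on Ni–NTA. The binding signal is per-feature fluorescence intensity (arbitrary units) from an Axon 4000B scanner.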
Take “TATAATTATTTTGAGTCACTACTAACCTCCTTGCCCGTTACGGAGTCACCTAGTGCAG”: the binding signal was 4760 fluorescence intensity (a.u.). “CCCACCGGCTGCGCGCCGATCCATCCATCCACACAAGGCCCGGAGTCACCTAGTGCAG”: the binding signal was 3150 fluorescence intensity (a.u.).

For “AGAGGAAGAGATGACTCAGCCTGACATGTGGGGCCCATGCCGGAGTCACCTAGTGCAG”, the binding signal was 8890 fluorescence intensity (a.u.). For “GTGATATTTTACACGATACAATATTGCTATATTTTGGGACCGGAGTCACCTAGTGCAG”, the binding signal was 24700 fluorescence intensity (a.u.). Next, “AGGCGCTTGAATTGGGTGGCCTGACTCAGGCAACCGAATTCGGAGTCACCTAGTGCAG”: 4530 fluorescence intensity (a.u.). The same measure for “GGAGACGTGGGTCCCGGCCGTGCTGCTCGGCCACGTGCGACGGAGTCACCTAGTGCAG”: 5030 fluorescence intensity (a.u.); for “TTTCTGGCAGATCCAAGTAGCTGACTGGGTGCAGCATATGCGGAGTCACCTAGTGCAG”: 5010 fluorescence intensity (a.u.). Next, “AATTTCTGACTCTTAGATTAGATGTGCCAGATCCTACGGACGGAGTCACCTAGTGCAG”: 3820 fluorescence intensity (a.u.); “GGCGGGCAGGGCGGACAGGAGGCGGGCGCGGCCGCGCGGGCGGAGTCACCTAGTGCAG”: 3240 fluorescence intensity (a.u.). Take “TCCTCATCATATGCAAGAGGACTCGATCCAGTCATGCAAACGGAGTCACCTAGTGCAG”: the binding signal is 3150 fluorescence intensity (a.u.).

Regarding “ATTAGAAGCCTGAGGTTGGAGTGAAATATTCCGTGTTCAGCGGAGTCACCTAGTGCAG”, the binding signal was 3280 fluorescence intensity (a.u.).

On to “TTTCTGGCCCAAACAAAGACATTGCCACGCTAACCGAACTCGGAGTCACCTAGTGCAG”, for which the binding signal is 9870 fluorescence intensity (a.u.). With “ATTAAAAGATGTAGAAAGCGCTAACATGTCATCAAACTTTCGGAGTCACCTAGTGCAG”, the binding signal is 3280 fluorescence intensity (a.u.). The same measure for “GGCCCCTTGATAGGTAATAGCCCTAATCCAGTTGATATGGCGGAGTCACCTAGTGCAG”: 3210 fluorescence intensity (a.u.); for “CGTACCGGCCACGGGCGCGCGTCACGTGGAGCCGCATCCACGGAGTCACCTAGTGCAG”: 4970 fluorescence intensity (a.u.); for “TCTCTTCCCTCTCCGTTTGTCGTGTCGAAGCCTTTGCCCCCGGAGTCACCTAGTGCAG”: 3870 fluorescence intensity (a.u.). The same measure for “ATCAAATAATCTGCCGCGTGTCAGCAGAGACTCGAGACGCCGGAGTCACCTAGTGCAG”: 4980 fluorescence intensity (a.u.); for “CCATTCCCACCACCTCAGCCGAGCCCCTCCCCTCTCGACCCGGAGTCACCTAGTGCAG”: 4110 fluorescence intensity (a.u.). The same measure for “CCTCTCCATTGCCTTCACCTCACTCGCCGCCGGTGATCAGCGGAGTCACCTAGTGCAG”: 3270 fluorescence intensity (a.u.); for “ACACGCACACTTCAGCTCTCGTCGTCATACATCTGCTAGTCGGAGTCACCTAGTGCAG”: 4430 fluorescence intensity (a.u.).

For “TTGGTACTAGCTGTTAACTCCTTCCGTTATACGGAGTACTCGGAGTCACCTAGTGCAG”, the binding signal was 3220 fluorescence intensity (a.u.).

As for “GGATCGCATGGTGATGACGACGTCGTGACATGGACGCAGGCGGAGTCACCTAGTGCAG”, the binding signal is 7020 fluorescence intensity (a.u.). The same measure for “GAAGCCAAGCCAAGCACACGAGCGCAGCAGCAGCAGCAGCCGGAGTCACCTAGTGCAG”: 25400 fluorescence intensity (a.u.).

Regarding “TTCTTTGACAAGCCTCGCATTGACGCATTCTGAAAGCCTGCGGAGTCACCTAGTGCAG”, the binding signal was 4260 fluorescence intensity (a.u.).

Take “CTCGTCCTCCGCTCCGGCGTCATCTCCCGGCACCGCTCCGCGGAGTCACCTAGTGCAG”: the binding signal was 3170 fluorescence intensity (a.u.). The same measure for “AGATTGGTGAGGATACATGTACGTGTACGCGTACGTGGCACGGAGTCACCTAGTGCAG”: 11100 fluorescence intensity (a.u.); for “TTAAAGCAACGAAACCCCACTATAATACTCCCCATCTCCCCGGAGTCACCTAGTGCAG”: 21800 fluorescence intensity (a.u.). Next, “ACCGGCGGTGCCACTCCAATCGTCGCCACGTAGCCGTCGACGGAGTCACCTAGTGCAG”: 6560 fluorescence intensity (a.u.).

On to “TCGCCGAAGCCCGTCACCATCGCGTCACCATCGCGTCCGACGGAGTCACCTAGTGCAG”, for which the binding signal was 11700 fluorescence intensity (a.u.).

With “CACGCTTCGGAGAATTTCCGACAATACACATACTCCTACTCGGAGTCACCTAGTGCAG”, the binding signal was 3260 fluorescence intensity (a.u.).

Turning to “GACTTCACTCACACGCGCACTCATATCCACGTACGATCTCCGGAGTCACCTAGTGCAG”, the binding signal is 6500 fluorescence intensity (a.u.).

For the sequence “GATCGGAATGGGCTGGGCCTGAGAAGACTACTACATGGGCCGGAGTCACCTAGTGCAG”, the binding signal is 26800 fluorescence intensity (a.u.). Next, “ACCTCCACCTCCGCGTCGCCCACCACCACCACGGCCGGCACGGAGTCACCTAGTGCAG”: 3780 fluorescence intensity (a.u.); “CGCGCGGCTCTCACGGGCGCCCTCGTACGTGTTGGTGTTGCGGAGTCACCTAGTGCAG”: 4000 fluorescence intensity (a.u.); “CCCTTTGTTACCACCAACTCATCAGCACCATATGTGGTAACGGAGTCACCTAGTGCAG”: 3340 fluorescence intensity (a.u.).

For the sequence “TGACCTAGTCCACGTGGAAACCGTAGCCGACTCGTCCTCGCGGAGTCACCTAGTGCAG”, the binding signal was 12800 fluorescence intensity (a.u.).

Take “CTAATATATTGACGTGCAATCCTTCTGCGCGTTCGAGAAACGGAGTCACCTAGTGCAG”: the binding signal was 3960 fluorescence intensity (a.u.). The same measure for “CACTCCACTGCAACCGTGCAACGCTGACACTCACTTTTAACGGAGTCACCTAGTGCAG”: 4230 fluorescence intensity (a.u.). The same measure for “ATATTCTATTTAGCCATCTAACAACATTATGGAACTAGTCCGGAGTCACCTAGTGCAG”: 4260 fluorescence intensity (a.u.); for “CGACGAGGGTGGGGCCGCCGCGCTCACCTCCAACGAGGACCGGAGTCACCTAGTGCAG”: 4130 fluorescence intensity (a.u.).

In the case of “ACCGGCTCTTGTACCGGCCCATGACGTCGACGCCGGTGACCGGAGTCACCTAGTGCAG”, the binding signal was 6370 fluorescence intensity (a.u.). The same measure for “TCCGAAAACAAAAGTCTATTTAGAAAACCGATCCGTCATTCGGAGTCACCTAGTGCAG”: 26000 fluorescence intensity (a.u.).
